We go through 1 molecule from patent US20250057791A1, “PROTECTION AGAINST ARTHROPOD PARASITES WITH PURINERGIC RECEPTOR (OPR) ANTAGONISTS” (priority 2021, published 2025).

The test system of this data set is A. gambiae labellum sensilla (purine-sensitive cell). Description: Tip recording of action potentials from A. gambiae labellum sensilla in response to agonists. Particulars: 200 pM ATP, 200 pM adenosine, 1 mM sucrose. In kind it is cell-based, Anopheles gambiae. How it is done:
The tip recording method was used to record action potentials (spikes) from sensory cells in sensilla on A. gambiae labellum lobes.
Sensilla were exposed to test compounds and PR antagonists for ca. 2-4 s and spikes were counted in the first 2 s of recordings. Up to 4 test compounds were tested on a sensillum to evaluate potential agonists, each presented at 200 pM. To study responses as a function of dose for agonists ATP, adenosine, AMP, AMP-CPP and ATP+adenosine, up to 7 recordings were made at increasing doses of agonist from the same sensillum. […]
Spike counts elicited by 200 pM doses of nucleotides, nucleosides, purines, pyrimidines and water were log(x+1.25)-transformed (optimal constant numerically established using a maximum likelihood procedure) and analysed using a linear mixed effects model (function ‘lme’ in “nlme” R package) with mosquito number as random effect. […] Spike counts elicited by ATP, AMP, adenosine and their binary mixtures were analysed using a generalised linear model (LM) of log (x+10) transformed data and differences were identified using post-hoc-Tukey test with Holm's FWEC. […]
Dose-response models fitted to mosquito data were generated using the ‘drm’ command in the “drc” R package (version 2.5-12). Best fitting models (goodness of fit) and effects of dose of a compound were assessed using, respectively, ‘modelFit’ and ‘noEffect’ functions in the same R package. […]

The structures appear in SMILES notation.

Take `Nc1ncnc2c1ncn2[C@@H]1O[C@H](COP(=O)(O)OP(=O)(O)OP(=O)(O)O)[C@@H](O)[C@H]1O` [ATP, Adenosine 5′-triphosphate]: the “Spike amplitude (mean±s.e.m.)” value was found to be 2.49 mV.
